Test results taken from paper PMC11747288.
No constants are given. Whether binding was seen depends on the method and setting. In cells and extracts the contact can be indirect. Some binding calls cover weakened binding; strength is not graded here.

Chains of the proteins cited; added tags and fusions are not shown.
UniProt P99999: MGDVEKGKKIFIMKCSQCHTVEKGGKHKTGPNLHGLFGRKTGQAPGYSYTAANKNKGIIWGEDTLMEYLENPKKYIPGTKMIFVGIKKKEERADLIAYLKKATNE
UniProt P55211: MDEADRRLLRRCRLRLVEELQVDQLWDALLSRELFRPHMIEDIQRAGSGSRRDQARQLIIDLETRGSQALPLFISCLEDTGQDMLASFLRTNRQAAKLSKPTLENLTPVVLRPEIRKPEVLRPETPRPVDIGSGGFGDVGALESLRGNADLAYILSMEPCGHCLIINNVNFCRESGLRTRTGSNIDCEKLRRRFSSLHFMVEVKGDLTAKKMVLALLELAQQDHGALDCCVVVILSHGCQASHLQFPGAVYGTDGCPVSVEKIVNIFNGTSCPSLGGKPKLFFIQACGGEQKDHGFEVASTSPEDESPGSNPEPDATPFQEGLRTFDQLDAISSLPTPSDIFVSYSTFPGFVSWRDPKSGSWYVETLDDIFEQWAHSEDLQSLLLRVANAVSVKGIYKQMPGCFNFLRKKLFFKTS
UniProt P58801: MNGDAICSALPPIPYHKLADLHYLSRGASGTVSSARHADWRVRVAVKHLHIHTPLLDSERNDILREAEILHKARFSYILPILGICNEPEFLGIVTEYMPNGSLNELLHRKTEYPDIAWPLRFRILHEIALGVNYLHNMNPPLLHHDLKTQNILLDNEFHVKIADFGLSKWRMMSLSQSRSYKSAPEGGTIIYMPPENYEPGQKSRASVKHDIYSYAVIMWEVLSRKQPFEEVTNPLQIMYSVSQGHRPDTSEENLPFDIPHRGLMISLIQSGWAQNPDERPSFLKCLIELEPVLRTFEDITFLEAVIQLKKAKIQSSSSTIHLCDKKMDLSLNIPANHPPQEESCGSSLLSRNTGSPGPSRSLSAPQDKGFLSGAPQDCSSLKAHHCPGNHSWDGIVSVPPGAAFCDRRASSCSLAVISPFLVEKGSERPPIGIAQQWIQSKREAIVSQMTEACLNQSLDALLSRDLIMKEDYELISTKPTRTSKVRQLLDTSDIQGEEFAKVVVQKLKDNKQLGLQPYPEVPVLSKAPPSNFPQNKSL
UniProt O43353: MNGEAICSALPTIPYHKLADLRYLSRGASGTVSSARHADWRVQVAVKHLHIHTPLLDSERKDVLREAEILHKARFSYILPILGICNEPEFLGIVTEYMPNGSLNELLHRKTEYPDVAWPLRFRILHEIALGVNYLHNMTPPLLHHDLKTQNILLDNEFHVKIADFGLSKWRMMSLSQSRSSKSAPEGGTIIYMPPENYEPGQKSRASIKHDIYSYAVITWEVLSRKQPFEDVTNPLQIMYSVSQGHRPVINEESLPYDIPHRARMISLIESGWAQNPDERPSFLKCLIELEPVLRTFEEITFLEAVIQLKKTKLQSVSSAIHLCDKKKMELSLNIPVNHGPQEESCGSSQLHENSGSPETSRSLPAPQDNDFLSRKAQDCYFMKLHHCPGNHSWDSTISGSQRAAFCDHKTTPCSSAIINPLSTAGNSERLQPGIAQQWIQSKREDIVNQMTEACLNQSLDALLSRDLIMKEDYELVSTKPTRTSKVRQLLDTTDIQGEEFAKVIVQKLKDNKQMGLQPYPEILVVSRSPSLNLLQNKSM

How the values were obtained:
Flag-tagged Cyt c = Flag-tagged Cyt c (UniProt P99999); test: co-IP; HA-tagged full-length Apaf-1 WT, DM or CM co-expressed with Flag-tagged Cyt c in HEK293T for 24 h; anti-Flag beads; blotted with anti-Flag or anti-HA
[1] = target: cleaved caspase-9, endogenous in A549 cell-free extracts (human (endogenous in A549)) (UniProt P55211); test: co-sedimentation; A549 cell-free extract with 50 μg/mL Cyt c and 1 mM dATP, without DNA, 30 °C for 2 h; glycerol gradient ultracentrifugation (10%–45%); fractions immunoblotted for Apaf-1, RIP2, caspase-9
[2] = target: RIP2, endogenous in primary mouse ear fibroblasts (mouse (endogenous in primary ear fibroblasts)) (UniProt P58801); test: cross-linking; chemical cross-linkers in lysates from primary mouse ear fibroblasts transfected with HT-DNA or ISD; immunoblot of endogenous RIP2
[3] = target: T1, Apaf-1, endogenous in A549 cell-free extracts (human (endogenous in A549)), O14727; test: co-sedimentation; A549 cell-free extract with 50 μg/mL Cyt c and 1 mM dATP, without DNA, 30 °C for 2 h; glycerol gradient ultracentrifugation (10%–45%); fractions immunoblotted for Apaf-1, RIP2, caspase-9; conditions: remark: other sources report otherwise
T1 chain: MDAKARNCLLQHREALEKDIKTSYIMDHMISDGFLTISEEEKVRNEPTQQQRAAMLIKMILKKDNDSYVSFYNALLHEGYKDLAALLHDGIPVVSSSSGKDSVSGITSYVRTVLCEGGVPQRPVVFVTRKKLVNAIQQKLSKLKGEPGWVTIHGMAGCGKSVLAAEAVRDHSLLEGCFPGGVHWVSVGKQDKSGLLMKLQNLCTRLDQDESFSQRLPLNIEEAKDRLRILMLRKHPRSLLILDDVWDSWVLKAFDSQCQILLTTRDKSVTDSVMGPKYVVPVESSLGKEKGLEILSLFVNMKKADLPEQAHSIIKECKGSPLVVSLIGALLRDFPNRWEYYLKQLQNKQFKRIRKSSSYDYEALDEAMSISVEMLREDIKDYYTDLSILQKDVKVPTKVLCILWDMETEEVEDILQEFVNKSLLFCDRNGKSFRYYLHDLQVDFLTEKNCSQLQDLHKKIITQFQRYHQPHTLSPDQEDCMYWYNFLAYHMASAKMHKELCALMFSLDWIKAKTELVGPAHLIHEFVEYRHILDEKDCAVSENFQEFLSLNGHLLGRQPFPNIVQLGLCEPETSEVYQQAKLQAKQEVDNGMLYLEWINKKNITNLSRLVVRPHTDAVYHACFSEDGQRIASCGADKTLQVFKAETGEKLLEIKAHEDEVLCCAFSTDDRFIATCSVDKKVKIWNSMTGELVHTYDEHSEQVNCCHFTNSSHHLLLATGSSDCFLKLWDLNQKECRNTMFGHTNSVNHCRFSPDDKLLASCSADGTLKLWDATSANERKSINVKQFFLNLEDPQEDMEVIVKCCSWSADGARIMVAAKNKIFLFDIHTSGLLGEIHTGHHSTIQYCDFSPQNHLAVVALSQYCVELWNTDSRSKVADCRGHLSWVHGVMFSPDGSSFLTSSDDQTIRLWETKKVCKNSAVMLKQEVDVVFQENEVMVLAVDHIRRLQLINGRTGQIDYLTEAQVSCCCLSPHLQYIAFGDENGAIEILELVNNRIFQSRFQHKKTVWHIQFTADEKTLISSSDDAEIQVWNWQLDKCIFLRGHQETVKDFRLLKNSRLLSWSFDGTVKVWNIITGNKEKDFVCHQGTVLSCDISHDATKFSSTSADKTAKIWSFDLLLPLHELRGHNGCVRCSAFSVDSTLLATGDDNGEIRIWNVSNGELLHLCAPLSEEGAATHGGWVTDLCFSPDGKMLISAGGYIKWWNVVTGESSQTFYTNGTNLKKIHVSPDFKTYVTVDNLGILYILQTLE

Question: For “HA-tagged full-length human Apaf-1 (apoptotic protease activating factor 1) (from UniProt O14727 1-1248)”, which binding (Flag-tagged Cyt c) is on record?
Answer: Its binding is “binds”.

Question: With “RIP2, endogenous in A549 cells (from UniProt O43353 1-540)” as the molecule, how does the binding [1] read?
Answer: Its binding is “no binding”.

Question: For “RIP2, endogenous in primary mouse ear fibroblasts (from UniProt P58801 1-539)”, which binding [2] is on record?
Answer: Its binding is “binds”.

B1: Apaf-1, endogenous in A549 cell-free extracts, O14727 1-1248 (protein)
chain: T1 chain
Question: B1 was tested. Which binding [3] did it give?
Answer: The binding was “binds”.
